Assay results published in paper PMC11432245.

Sequences of proteins named here, by UniProt entry; tags and fusion partners are left off.
UniProt Q9BSM1: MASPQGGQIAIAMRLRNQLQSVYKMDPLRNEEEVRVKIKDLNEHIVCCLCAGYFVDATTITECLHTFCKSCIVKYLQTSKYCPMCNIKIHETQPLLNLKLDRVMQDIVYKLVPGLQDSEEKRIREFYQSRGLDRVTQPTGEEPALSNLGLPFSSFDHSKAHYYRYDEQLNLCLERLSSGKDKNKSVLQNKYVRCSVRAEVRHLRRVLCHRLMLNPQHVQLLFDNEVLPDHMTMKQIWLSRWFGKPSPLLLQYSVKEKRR
UniProt P35226: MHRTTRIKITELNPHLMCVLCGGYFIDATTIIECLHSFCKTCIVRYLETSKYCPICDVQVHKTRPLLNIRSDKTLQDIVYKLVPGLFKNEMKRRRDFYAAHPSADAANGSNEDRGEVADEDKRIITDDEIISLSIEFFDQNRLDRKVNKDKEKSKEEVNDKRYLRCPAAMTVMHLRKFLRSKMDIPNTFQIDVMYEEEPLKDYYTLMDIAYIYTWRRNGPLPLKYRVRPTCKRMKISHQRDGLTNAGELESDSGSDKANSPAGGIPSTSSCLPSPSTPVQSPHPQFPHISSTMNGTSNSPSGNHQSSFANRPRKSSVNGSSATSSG
UniProt Q99496: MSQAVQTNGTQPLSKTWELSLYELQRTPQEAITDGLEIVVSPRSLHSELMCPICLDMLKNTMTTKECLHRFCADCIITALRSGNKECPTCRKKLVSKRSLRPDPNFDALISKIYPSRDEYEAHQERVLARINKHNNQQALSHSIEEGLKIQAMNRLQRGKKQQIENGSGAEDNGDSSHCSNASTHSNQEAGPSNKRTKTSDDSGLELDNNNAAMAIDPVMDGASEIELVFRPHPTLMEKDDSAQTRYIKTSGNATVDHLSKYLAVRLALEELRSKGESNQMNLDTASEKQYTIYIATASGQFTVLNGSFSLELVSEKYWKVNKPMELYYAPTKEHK
UniProt A5YKK6: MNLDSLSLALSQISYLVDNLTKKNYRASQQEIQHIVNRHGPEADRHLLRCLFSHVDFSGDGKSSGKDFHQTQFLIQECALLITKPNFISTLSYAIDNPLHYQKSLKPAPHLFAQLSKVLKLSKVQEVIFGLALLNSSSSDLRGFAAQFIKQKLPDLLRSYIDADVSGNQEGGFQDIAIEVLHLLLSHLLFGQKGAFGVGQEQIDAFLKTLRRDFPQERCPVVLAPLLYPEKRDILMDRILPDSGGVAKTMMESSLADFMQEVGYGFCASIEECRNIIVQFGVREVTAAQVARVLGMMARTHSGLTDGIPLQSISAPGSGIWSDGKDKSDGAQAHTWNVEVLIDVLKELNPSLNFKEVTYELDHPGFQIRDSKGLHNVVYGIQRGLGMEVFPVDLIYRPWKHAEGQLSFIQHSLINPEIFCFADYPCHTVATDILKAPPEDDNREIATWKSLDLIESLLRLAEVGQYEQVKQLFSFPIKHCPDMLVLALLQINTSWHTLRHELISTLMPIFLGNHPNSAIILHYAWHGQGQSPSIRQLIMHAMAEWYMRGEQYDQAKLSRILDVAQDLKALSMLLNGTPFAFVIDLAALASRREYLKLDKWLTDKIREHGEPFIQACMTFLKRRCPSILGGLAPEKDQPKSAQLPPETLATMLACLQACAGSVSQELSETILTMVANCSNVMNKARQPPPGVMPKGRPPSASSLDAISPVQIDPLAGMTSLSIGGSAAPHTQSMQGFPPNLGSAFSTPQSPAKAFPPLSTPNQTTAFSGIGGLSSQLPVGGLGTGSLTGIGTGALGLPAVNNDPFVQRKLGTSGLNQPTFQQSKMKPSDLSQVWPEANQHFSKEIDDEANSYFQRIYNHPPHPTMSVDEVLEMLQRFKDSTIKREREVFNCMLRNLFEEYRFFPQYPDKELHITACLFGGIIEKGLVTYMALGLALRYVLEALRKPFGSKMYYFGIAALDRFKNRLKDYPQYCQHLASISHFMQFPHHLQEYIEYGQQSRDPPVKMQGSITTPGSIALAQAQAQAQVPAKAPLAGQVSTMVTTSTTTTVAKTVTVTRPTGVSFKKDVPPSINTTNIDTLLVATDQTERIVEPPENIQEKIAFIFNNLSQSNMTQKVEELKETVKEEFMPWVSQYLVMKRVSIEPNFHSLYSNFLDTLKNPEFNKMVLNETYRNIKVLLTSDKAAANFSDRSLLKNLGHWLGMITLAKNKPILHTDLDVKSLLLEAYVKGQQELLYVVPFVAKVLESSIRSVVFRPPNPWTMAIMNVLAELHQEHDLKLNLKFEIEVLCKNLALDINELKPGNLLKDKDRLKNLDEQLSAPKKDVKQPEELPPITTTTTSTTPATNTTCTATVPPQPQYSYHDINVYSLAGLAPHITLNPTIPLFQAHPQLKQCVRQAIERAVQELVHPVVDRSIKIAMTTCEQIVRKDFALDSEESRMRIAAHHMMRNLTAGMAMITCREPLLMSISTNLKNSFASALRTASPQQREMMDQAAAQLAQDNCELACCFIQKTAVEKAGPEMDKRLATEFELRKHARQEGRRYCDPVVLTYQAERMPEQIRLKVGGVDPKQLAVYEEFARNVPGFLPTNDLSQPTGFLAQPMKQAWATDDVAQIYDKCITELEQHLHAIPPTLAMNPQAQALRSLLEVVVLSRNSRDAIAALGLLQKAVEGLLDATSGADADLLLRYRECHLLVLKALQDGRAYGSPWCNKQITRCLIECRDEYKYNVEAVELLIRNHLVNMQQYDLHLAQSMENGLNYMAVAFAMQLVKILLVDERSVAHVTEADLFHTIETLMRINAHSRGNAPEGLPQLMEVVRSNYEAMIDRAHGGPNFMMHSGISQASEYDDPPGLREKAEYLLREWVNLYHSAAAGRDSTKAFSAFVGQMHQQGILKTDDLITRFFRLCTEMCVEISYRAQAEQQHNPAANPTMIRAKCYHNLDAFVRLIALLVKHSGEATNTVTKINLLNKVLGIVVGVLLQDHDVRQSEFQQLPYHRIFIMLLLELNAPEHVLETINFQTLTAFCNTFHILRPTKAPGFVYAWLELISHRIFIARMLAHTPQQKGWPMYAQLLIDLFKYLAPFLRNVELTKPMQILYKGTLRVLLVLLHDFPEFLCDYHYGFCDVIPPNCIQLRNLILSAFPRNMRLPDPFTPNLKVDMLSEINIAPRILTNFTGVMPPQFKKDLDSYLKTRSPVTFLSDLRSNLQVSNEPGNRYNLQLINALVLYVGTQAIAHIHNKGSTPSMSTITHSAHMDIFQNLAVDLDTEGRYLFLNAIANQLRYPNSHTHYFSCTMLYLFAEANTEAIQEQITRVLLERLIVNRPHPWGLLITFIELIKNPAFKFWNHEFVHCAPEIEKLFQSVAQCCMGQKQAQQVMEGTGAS
UniProt P67870: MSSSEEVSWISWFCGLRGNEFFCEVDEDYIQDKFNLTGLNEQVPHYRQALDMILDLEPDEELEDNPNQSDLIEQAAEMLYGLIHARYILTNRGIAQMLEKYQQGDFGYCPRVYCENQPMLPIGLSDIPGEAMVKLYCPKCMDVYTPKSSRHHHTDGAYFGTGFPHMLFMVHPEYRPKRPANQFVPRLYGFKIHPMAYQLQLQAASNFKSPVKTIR
UniProt Q86SE9: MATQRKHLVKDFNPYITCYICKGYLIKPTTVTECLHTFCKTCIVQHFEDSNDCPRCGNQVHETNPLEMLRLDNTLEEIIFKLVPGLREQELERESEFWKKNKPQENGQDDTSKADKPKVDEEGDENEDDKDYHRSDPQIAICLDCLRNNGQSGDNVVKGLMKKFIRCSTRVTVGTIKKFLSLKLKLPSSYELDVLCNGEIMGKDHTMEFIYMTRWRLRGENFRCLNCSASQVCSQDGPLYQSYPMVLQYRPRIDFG
UniProt Q06587: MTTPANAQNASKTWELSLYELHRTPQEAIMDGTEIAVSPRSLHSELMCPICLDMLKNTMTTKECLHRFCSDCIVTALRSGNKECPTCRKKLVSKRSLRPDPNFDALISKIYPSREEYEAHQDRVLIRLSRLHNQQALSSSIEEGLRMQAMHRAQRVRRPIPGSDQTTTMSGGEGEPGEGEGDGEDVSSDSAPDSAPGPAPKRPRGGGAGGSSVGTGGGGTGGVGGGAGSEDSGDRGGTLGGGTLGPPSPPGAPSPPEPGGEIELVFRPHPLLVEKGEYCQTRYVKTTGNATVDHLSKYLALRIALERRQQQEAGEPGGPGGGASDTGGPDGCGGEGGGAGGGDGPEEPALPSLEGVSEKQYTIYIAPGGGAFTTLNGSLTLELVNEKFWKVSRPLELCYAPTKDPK
UniProt Q93009: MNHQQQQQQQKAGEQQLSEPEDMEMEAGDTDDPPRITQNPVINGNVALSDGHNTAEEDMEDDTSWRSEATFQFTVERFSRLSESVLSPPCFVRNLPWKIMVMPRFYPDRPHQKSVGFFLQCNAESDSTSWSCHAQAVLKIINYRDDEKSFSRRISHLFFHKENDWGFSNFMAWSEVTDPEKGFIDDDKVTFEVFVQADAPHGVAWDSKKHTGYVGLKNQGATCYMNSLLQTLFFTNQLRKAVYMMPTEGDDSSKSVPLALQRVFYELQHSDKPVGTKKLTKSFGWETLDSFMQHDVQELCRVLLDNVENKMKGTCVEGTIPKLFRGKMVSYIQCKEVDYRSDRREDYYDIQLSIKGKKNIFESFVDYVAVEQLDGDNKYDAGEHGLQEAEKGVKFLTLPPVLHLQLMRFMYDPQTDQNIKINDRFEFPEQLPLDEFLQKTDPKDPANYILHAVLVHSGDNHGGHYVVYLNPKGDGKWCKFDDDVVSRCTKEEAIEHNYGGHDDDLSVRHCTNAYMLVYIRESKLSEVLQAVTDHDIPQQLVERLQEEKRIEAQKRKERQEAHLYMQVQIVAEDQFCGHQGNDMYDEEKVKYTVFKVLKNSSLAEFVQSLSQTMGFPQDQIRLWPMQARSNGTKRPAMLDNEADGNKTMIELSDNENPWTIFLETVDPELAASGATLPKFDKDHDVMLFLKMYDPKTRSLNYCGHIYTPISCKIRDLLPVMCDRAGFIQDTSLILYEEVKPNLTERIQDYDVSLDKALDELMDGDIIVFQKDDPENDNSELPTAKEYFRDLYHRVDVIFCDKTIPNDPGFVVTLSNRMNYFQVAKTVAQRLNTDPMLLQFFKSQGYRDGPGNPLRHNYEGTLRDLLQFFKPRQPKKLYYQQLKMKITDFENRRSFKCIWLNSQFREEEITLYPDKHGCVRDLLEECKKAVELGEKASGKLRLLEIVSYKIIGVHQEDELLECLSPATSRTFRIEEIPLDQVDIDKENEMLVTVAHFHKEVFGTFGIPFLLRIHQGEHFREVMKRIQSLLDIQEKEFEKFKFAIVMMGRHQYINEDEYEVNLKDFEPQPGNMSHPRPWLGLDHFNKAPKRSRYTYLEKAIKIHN

T1: PCGF2 (human (endogenous in NT2)) (UniProt P35227)
T1 sequence: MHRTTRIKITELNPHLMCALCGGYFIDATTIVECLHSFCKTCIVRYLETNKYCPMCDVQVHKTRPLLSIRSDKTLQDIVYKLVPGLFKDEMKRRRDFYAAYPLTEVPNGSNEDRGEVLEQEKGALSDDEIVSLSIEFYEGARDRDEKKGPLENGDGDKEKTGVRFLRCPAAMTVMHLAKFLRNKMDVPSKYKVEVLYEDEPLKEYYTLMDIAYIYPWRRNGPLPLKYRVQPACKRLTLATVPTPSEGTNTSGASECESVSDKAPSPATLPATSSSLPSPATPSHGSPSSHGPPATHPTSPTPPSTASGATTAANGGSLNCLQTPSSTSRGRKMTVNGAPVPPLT


Columns and labels:
Assay in all cases: affinity purification with mass spectrometry; endogenous proteins; NT2 nuclear lysates immunoprecipitated with α-PCGF1, α-PCGF2, α-PCGF4/BMI1 or α-RNF2/RING1B, rabbit IgG as negative control; trypsin digestion on beads, label-free quantitation (MaxQuant), FDR 1%, ≥1.5-fold change
[1] = biological target: T1, PCGF2 (human (endogenous in NT2))
[2] = biological target: PCGF1 (human (endogenous in NT2)) (UniProt Q9BSM1)
[3] = biological target: PCGF4/BMI1 (human (endogenous in NT2)) (UniProt P35226)
[4] = biological target: RNF2/RING1B (human (endogenous in NT2)) (UniProt Q99496)

| binding [1] | binding [2] | binding [3] | binding [4] | Molecule |
| --- | --- | --- | --- | --- |
| no binding | binds | no binding |  | BCOR (from UniProt Q6W2J9 1-1755) |
| binds | binds | binds | binds | CNOT1 (from UniProt A5YKK6 1-2376) |
| binds | binds | binds |  | CSNK2B (from UniProt P67870 1-215) |
|  |  |  | binds | PCGF5 (from UniProt Q86SE9 1-256) |
| binds | binds | binds |  | RING1A (from UniProt Q06587 1-406) |
| binds | binds | binds |  | USP7 (from UniProt Q93009 1-1102) |
| binds |  | binds |  | PHC2 (protein, UniProt Q8IXK0 1-858) MENELPVPHTSSSACATSSTSGASSSSGCNNSSSGGSGRPTGPQISVYSGIPDRQTVQVIQQALHRQPSTAAQYLQQMYAAQQQHLMLQTAALQQQHLSSAQLQSLAAVQQASLVSNRQGSTSGSNVSAQAPAQSSSINLAASPAAAQLLNRAQSVNSAAASGIAQQAVLLGNTSSPALTASQAQMYLRAQMLIFTPTATVATVQPELGTGSPARPPTPAQVQNLTLRTQQTPAAAASGPTPTQPVLPSLALKPTPGGSQPLPTPAQSRNTAQASPAGAKPGIADSVMEPHKKGDGNSSVPGSMEGRAGLSRTVPAVAAHPLIAPAYAQLQPHQLLPQPSSKHLQPQFVIQQQPQPQQQQPPPQQSRPVLQAEPHPQLASVSPSVALQPSSEAHAMPLGPVTPALPLQCPTANLHKPGGSQQCHPPTPDTGPQNGHPEGVPHTPQRRFQHTSAVILQLQPASPPQQCVPDDWKEVAPGEKSVPETRSGPSPHQQAIVTAMPGGLPVPTSPNIQPSPAHETGQGIVHALTDLSSPGMTSGNGNSASSIAGTAPQNGENKPPQAIVKPQILTHVIEGFVIQEGAEPFPVGRSSLLVGNLKKKYAQGFLPEKLPQQDHTTTTDSEMEEPYLQESKEEGAPLKLKCELCGRVDFAYKFKRSKRFCSMACAKRYNVGCTKRVGLFHSDRSKLQKAGAATHNRRRASKASLPPLTKDTKKQPTGTVPLSVTAALQLTHSQEDSSRCSDNSSYEEPLSPISASSSTSRRRQGQRDLELPDMHMRDLVGMGHHFLPSEPTKWNVEDVYEFIRSLPGCQEIAEEFRAQEIDGQALLLLKEDHLMSAMNIKLGPALKIYARISMLKDS |
| binds | binds | binds |  | PHC3 (protein, UniProt Q8NDX5 1-983) MDTEPNPGTSSVSTTTSSTTTTTITTSSSRMQQPQISVYSGSDRHAVQVIQQALHRPPSSAAQYLQQMYAAQQQHLMLHTAALQQQHLSSSQLQSLAAVQASLSSGRPSTSPTGSVTQQSSMSQTSINLSTSPTPAQLISRSQASSSTSGSITQQTMLLGSTSPTLTASQAQMYLRAQMLIFTPATTVAAVQSDIPVVSSSSSSSCQSAATQVQNLTLRSQKLGVLSSSQNGPPKSTSQTQSLTICHNKTTVTSSKISQRDPSPESNKKGESPSLESRSTAVTRTSSIHQLIAPASYSPIQPHSLIKHQQIPLHSPPSKVSHHQLILQQQQQQIQPITLQNSTQDPPPSQHCIPLQNHGLPPAPSNAQSQHCSPIQSHPSPLTVSPNQSQSAQQSVVVSPPPPHSPSQSPTIIIHPQALIQPHPLVSSALQPGPNLQQSTANQVQATAQLNLPSHLPLPASPVVHIGPVQQSALVSPGQQIVSPSHQQYSSLQSSPIPIASPPQMSTSPPAQIPPLPLQSMQSLQVQPEILSQGQVLVQNALVSEEELPAAEALVQLPFQTLPPPQTVAVNLQVQPPAPVDPPVVYQVEDVCEEEMPEESDECVRMDRTPPPPTLSPAAITVGRGEDLTSEHPLLEQVELPAVASVSASVIKSPSDPSHVSVPPPPLLLPAATTRSNSTSMHSSIPSIENKPPQAIVKPQILTHVIEGFVIQEGLEPFPVSRSSLLIEQPVKKRPLLDNQVINSVCVQPELQNNTKHADNSSDTEMEDMIAEETLEEMDSELLKCEFCGKMGYANEFLRSKRFCTMSCAKRYNVSCSKKFALSRWNRKPDNQSLGHRGRRPSGPDGAAREHILRQLPITYPSAEEDLASHEDSVPSAMTTRLRRQSERERERELRDVRIRKMPENSDLLPVAQTEPSIWTVDDVWAFIHSLPGCQDIADEFRAQEIDGQALLLLKEDHLMSAMNIKLGPALKICARINSLKES |
|  |  |  | binds | PCGF6 (protein, UniProt Q9BYE7 1-350) MEGVAVVTAGSVGAAKTEGAAALPPPPPVSPPALTPAPAAGEEGPAPLSETGAPGCSGSRPPELEPERSLGRFRGRFEDEDEELEEEEELEEEEEEEEEDMSHFSLRLEGGRQDSEDEEERLINLSELTPYILCSICKGYLIDATTITECLHTFCKSCIVRHFYYSNRCPKCNIVVHQTQPLYNIRLDRQLQDIVYKLVINLEEREKKQMHDFYKERGLEVPKPAVPQPVPSSKGRSKKVLESVFRIPPELDMSLLLEFIGANEGTGHFKPLEKKFVRVSGEATIGHVEKFLRRKMGLDPACQVDIICGDHLLEQYQTLREIRRAIGDAAMQDGLLVLHYGLVVSPLKIT |
| binds | binds | binds |  | KDM2B (protein, UniProt Q8NHM5 1-1336) MAGPQMGGSAEDHPPRKRHAAEKQKKKTVIYTKCFEFESATQRPIDRQRYDENEDLSDVEEIVSVRGFSLEEKLRSQLYQGDFVHAMEGKDFNYEYVQREALRVPLIFREKDGLGIKMPDPDFTVRDVKLLVGSRRLVDVMDVNTQKGTEMSMSQFVRYYETPEAQRDKLYNVISLEFSHTKLEHLVKRPTVVDLVDWVDNMWPQHLKEKQTEATNAIAEMKYPKVKKYCLMSVKGCFTDFHIDFGGTSVWYHVFRGGKIFWLIPPTLHNLALYEEWVLSGKQSDIFLGDRVERCQRIELKQGYTFFIPSGWIHAVYTPVDSLVFGGNILHSFNVPMQLRIYEIEDRTRVQPKFRYPFYYEMCWYVLERYVYCVTQRSHLTQEYQRESMLIDAPRKPSIDGFSSDSWLEMEEEACDQQPQEEEEKDEEGEGRDRAPKPPTDGSTSPTSTPSEDQEALGKKPKAPALRFLKRTLSNESEESVKSTTLAVDYPKTPTGSPATEVSAKWTHLTEFELKGLKALVEKLESLPENKKCVPEGIEDPQALLEGVKNVLKEHADDDPSLAITGVPVVTWPKKTPKNRAVGRPKGKLGPASAVKLAANRTTAGARRRRTRCRKCEACLRTECGECHFCKDMKKFGGPGRMKQSCIMRQCIAPVLPHTAVCLVCGEAGKEDTVEEEEGKFNLMLMECSICNEIIHPGCLKIKESEGVVNDELPNCWECPKCNHAGKTGKQKRGPGFKYASNLPGSLLKEQKMNRDNKEGQEPAKRRSECEEAPRRRSDEHSKKVPPDGLLRRKSDDVHLRKKRKYEKPQELSGRKRASSLQTSPGSSSHLSPRPPLGSSLSPWWRSSLTYFQQQLKPGKEDKLFRKKRRSWKNAEDRMALANKPLRRFKQEPEDELPEAPPKTRESDHSRSSSPTAGPSTEGAEGPEEKKKVKMRRKRRLPNKELSRELSKELNHEIQRTENSLANENQQPIKSEPESEGEEPKRPPGICERPHRFSKGLNGTPRELRHQLGPSLRSPPRVISRPPPSVSPPKCIQMERHVIRPPPISPPPDSLPLDDGAAHVMHREVWMAVFSYLSHQDLCVCMRVCRTWNRWCCDKRLWTRIDLNHCKSITPLMLSGIIRRQPVSLDLSWTNISKKQLSWLINRLPGLRDLVLSGCSWIAVSALCSSSCPLLRTLDVQWVEGLKDAQMRDLLSPPTDNRPGQMDNRSKLRNIVELRLAGLDITDASLRLIIRHMPLLSKLHLSYCNHVTDQSINLLTAVGTTTRDSLTEINLSDCNKVTDQCLSFFKRCGNICHIDLRYCKQVTKEGCEQFIAEMSVSVQFGQVEEKLLQKLS |
| binds | binds | binds | binds | CNOT4 (protein, UniProt O95628 1-575) MSRSPDAKEDPVECPLCMEPLEIDDINFFPCTCGYQICRFCWHRIRTDENGLCPACRKPYPEDPAVYKPLSQEELQRIKNEKKQKQNERKQKISENRKHLASVRVVQKNLVFVVGLSQRLADPEVLKRPEYFGKFGKIHKVVINNSTSYAGSQGPSASAYVTYIRSEDALRAIQCVNNVVVDGRTLKASLGTTKYCSYFLKNMQCPKPDCMYLHELGDEAASFTKEEMQAGKHQEYEQKLLQELYKLNPNFLQLSTGSVDKNKNKVTPLQRYDTPIDKPSDSLSIGNGDNSQQISNSDTPSPPPGLSKSNPVIPISSSNHSARSPFEGAVTESQSLFSDNFRHPNPIPSGLPPFPSSPQTSSDWPTAPEPQSLFTSETIPVSSSTDWQAAFGFGSSKQPEDDLGFDPFDVTRKALADLIEKELSVQDQPSLSPTSLQNSSSHTTTAKGPGSGFLHPAAATNANSLNSTFSVLPQRFPQFQQHRAVYNSFSFPGQAARYPWMAFPRNSIMHLNHTANPTSNSNFLDLNLPPQHNTGLGGIPVAGEEEVKVSTMPLSTSSHSLQQGQQPTSLHTTVA |
|  |  |  | binds | PCGF3 (protein, UniProt Q3KNV8 1-242) MLTRKIKLWDINAHITCRLCSGYLIDATTVTECLHTFCRSCLVKYLEENNTCPTCRIVIHQSHPLQYIGHDRTMQDIVYKLVPGLQEAEMRKQREFYHKLGMEVPGDIKGETCSAKQHLDSHRNGETKADDSSNKEAAEEKPEEDNDYHRSDEQVSICLECNSSKLRGLKRKWIRCSAQATVLHLKKFIAKKLNLSSFNELDILCNEEILGKDHTLKFVVVTRWRFKKAPLLLHYRPKMDLL |

No constants are given. Whether binding was seen depends on the method and setting. Binding seen in cells or lysates may run through a third protein. A yes stands for co-enrichment or nearness to the bait. Other partners may have been found. For some of these results: No binding means not detected with the bait.
